Test results reported in PubChem BioAssay AID504467 (National Center for Advancing Translational Sciences (NCATS), 2011).
Where “and” joins values, the source holds several entries; their conditions need not be identical. Identical values can stand only once. Screen size: about 330,000 compounds; about 7,700 (2.3%) were called active. Inconclusive means that the source gave no clear call. Such entries were picked first, then a sample of the others. Calls follow the shape of the dose curve; as a rule, active = well fitted inhibition curve with a large enough effect; inconclusive = small, poorly fitted or top-dose-only effect, or effect the other way; inactive = flat fitted curve, though single readings scatter. Potencies of inconclusive entries are doubtful fits and often do not repeat.

experiment: qHTS screen for small molecules that inhibit ELG1-dependent DNA repair in human embryonic kidney (HEK293T) cells expressing luciferase-tagged ELG1; conditions: HEK293T ELG1-luciferase reporter, luminescence, 16 h, DNA damage induced by 5-fluorouridine; activity change, negative = inhibition: at 46.1 µM (top of the series); also: nearly all actives have a fitted effect of over 55% in size
Summary of the method: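 Cells (2,000 per well) received 5-fluorouridine plus test compound or DMSO and were incubated 16 hr at 37 °C, 5% CO2. Luciferase activity was read by luminescence 30 min after ONE-Glo addition; signal suppression marked inhibition of damage-induced ELG1 function.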
% is scaled to controls: 0 for no effect and ±100 for the full control effect; potency is read from the fitted curve at half-maximal effect.

| SMILES | Potency | activity change, negative = inhibition |
| --- | --- | --- |
| COc1ccc(CNC(=O)COc2cc(=O)n(C)c3ccccc23)cc1 | inconclusive: 20.6 µM [activator, single point] | – |
| O=[N+]([O-])c1cccc(/C=N/Nc2cc(Cl)nc(-c3ccccc3)n2)c1 | inconclusive: 13 µM [inhibitor, partial curve, poor fit] | – |
| COCCNC(=S)N(CCc1c(C)[nH]c2ccc(Cl)cc12)Cc1cccs1 | inconclusive: 29.1 µM [inhibitor, single point] | – |
| CCc1ccc(N2CC(C(=O)Nc3ccc(C)c(S(=O)(=O)N4CCOCC4)c3)CC2=O)cc1 (stereo not given) | active: 20.6 µM | – |
| Cc1ccc(-c2nn(-c3ccccc3)cc2NC(=O)CCl)cc1 | inconclusive: 6.51 µM [inhibitor, partial curve, poor fit] | – |
| CC(C)(C)c1nnc(NC(=O)c2cccs2)s1 | inconclusive: 9.2 µM [activator, partial curve] | – |
| COc1ccccc1CC(NC(C)=O)C(=O)NC1CCN(C(=O)Nc2ccc(F)cc2)CC1 (stereo not given) | – | inactive: -2.68% |
| COc1ccc(OC)c(Nc2nc3ccccc3n3cnnc23)c1 | active: 14.6 µM | – |
| CCCCNC(=O)C1CCN(S(=O)(=O)c2c(C)noc2/C=C\c2ccc(OC)cc2)CC1 | – | inactive: -0.867% |
| COC(=O)c1ccccc1NC(=O)Nc1ccc(C)cn1 | inconclusive: 29.1 µM [activator, single point] | – |
| Cc1cc(OC(=O)c2ccc(Cl)cc2Cl)nc(C)n1 | inconclusive: 1.03 µM [inhibitor, single point] | – |
| c1ccc2c(c1)OCC(c1csc3ncnc(N4CCCCC4)c13)O2 (stereo not given) | inconclusive: 18.4 µM [inhibitor, partial curve, poor fit] | – |
| Cc1cc(C(=O)NCC(C)(C)N2CCOCC2)c(C)o1 | inconclusive: 0.0092 µM [activator, full curve, poor fit] | – |
| Cc1c(CCC(=O)NCCCn2ccnc2)c(=O)oc2cc3oc4c(c3cc12)CCCC4 | – | inactive: 3.29% |
| O=C(Nc1ccc(Cl)cc1)C1CCC(=O)N1Cc1ccccc1Cl (stereo not given) | – | inactive: 6.44% |
| Cn1nnnc1SCC(=O)c1ccc(Br)s1 | inconclusive: 25.9 µM [activator, partial curve, poor fit] | – |
| Nc1nc(=S)[nH]c2c1C1(CCCC1)Cc1ccccc1-2 | – | inactive: -14.6% |
| CC(=O)Nc1cccc(NC(=O)C2CC(=O)N(CCc3ccc(F)cc3)C2)c1 (stereo not given) | – | inactive: -2.85% |
| CC(=O)c1cccc(OCC(=O)Nc2ccccc2N2CCOCC2)c1 | inconclusive: 29.1 µM [inhibitor, single point] | – |
| c1cc(-c2ccncc2)ccn1 | inconclusive: 11.6 µM [inhibitor, partial curve, poor fit] | – |
| CN1C(C(=O)Nc2ccc(OC(F)(F)F)cc2)=CC(c2cccs2)=NS1(=O)=O | – | inactive: 13.1% |
| Cc1cc(OCC(=O)NCc2ccccn2)cc(C)c1Br | inconclusive: 13 µM [activator, partial curve, poor fit] | – |
| COc1ccc2nc(Nc3nc(-c4cc5ccccc5oc4=O)cs3)sc2c1 | active: 3.66 µM | – |

| SMILES | Potency | activity change, negative = inhibition |
| --- | --- | --- |
| CC1Cc2nc(SCC(=O)N3CCOCC3)n(-c3ccccc3)c(=O)c2S1 (stereo not given) | – | inactive: 7.98% |
| O=C1C2C3C=CC(C4CC34)C2C(=O)N1c1cccc2ccccc12 (stereo not given) | inconclusive: 11.6 µM [activator, partial curve, poor fit] | – |
| CCN1C(=O)/C(=C\c2cn(CCC#N)nc2-c2ccc(F)cc2)SC1=S | active: 14.6 µM | – |
| CC(Oc1ccc2c(-c3ccccc3)cc(=O)oc2c1)C(=O)NCCCn1ccnc1 (stereo not given) | – | inactive: 4.29% |
| CCn1c(SCC(=O)OC)nc2sc3c(c2c1=O)CC(C)(C)OC3 | inconclusive: 29.1 µM [inhibitor, single point] | – |
| COc1ccc(-n2c(=O)[nH]c3cc(C(=O)NCCc4ccccc4)ccc3c2=O)cc1OC | active: 20.6 µM | – |
| O=C(NN=C1CCN(Cc2ccccc2)CC1)c1cc(Br)ccc1O | – | inactive: 3.04% |
| CCNc1c(NS(=O)(=O)c2ccc([N+](=O)[O-])cc2)c(=O)oc2ccccc12 | inconclusive: 29.1 µM [activator, single point] | – |
| O=C(NCc1ccccc1)Nc1cccn(Cc2ccccc2Cl)c1=O | inconclusive: 11.6 µM [inhibitor, partial curve] | – |
| CCOc1ccccc1NC(=O)Cn1[nH]c(=O)c2ccccc2c1=O | – | inactive: 0.768% |
| O=C(c1ccc(S(=O)(=O)N2CCCC2)cc1)N1CCCCC1 | – | inactive: 3.07% |
| Cc1cccc(N2C(=O)/C(=C\c3ccc(OC(F)F)cc3)c3ccccc3C2=O)c1 | inconclusive: 29.1 µM [activator, single point] | – |
| CC1CCN(c2ccc(NC(=O)Cn3c(=O)oc4ccccc43)cc2)CC1 | – | inactive: 6.43% |
| CO/N=C/NC(=O)c1ccc([N+](=O)[O-])c(CS(=O)(=O)c2ccc(Cl)cc2)c1 | – | inactive: -1.98% |
| O=C(CN1c2cccc3cccc(c23)S1(=O)=O)Nc1ccccc1Br | inconclusive: 25.9 µM [inhibitor, single point] | – |
| C=CCn1c(=O)c2ccccc2n2c(SCC(=O)N3CCCc4ccccc43)nnc12 | inconclusive: 25.9 µM [inhibitor, partial curve, poor fit] | – |
| O=c1c2ccccc2ncn1-c1ccc(Cl)cc1 | inconclusive: 18.3 µM [activator, partial curve] and inconclusive: 14.6 µM [activator, partial curve, poor fit] | – |
| O=[N+]([O-])c1ccccc1OCCOc1ccccc1[N+](=O)[O-] | inconclusive: 2.59 µM [activator, full curve] | – |
| CC(C)Oc1cc(O)c2c(=O)c(-c3ccc(O)cc3)coc2c1 | inconclusive: 9.2 µM [activator, partial curve] | – |
| COC(=O)c1ccccc1S(=O)(=O)N1CCC(C(=O)OCc2ccc([N+](=O)[O-])cc2)CC1 | – | inactive: 1.98% |
| COc1ccccc1OCC(=O)n1cc(C(=O)c2cc(Cl)cc(Cl)c2O)cn1 | inconclusive: 13 µM [inhibitor, partial curve, poor fit] | – |
| O=C(c1cccc(Oc2ccc([N+](=O)[O-])cc2Cl)c1)N1CCCCC1 | active: 23.1 µM | – |
